Assay results taken from paper PMC3052437.
No constants are given. Whether binding was seen depends on the method and setting. In cells and extracts the contact can be indirect. Some results given as binding are weak or reduced against the parent protein; the word gives no strength. Where a sequence is shown, tags or fusion partners need not be part of it.

By UniProt entry, the sequences of proteins in these tests, tags left out.
UniProt P37231: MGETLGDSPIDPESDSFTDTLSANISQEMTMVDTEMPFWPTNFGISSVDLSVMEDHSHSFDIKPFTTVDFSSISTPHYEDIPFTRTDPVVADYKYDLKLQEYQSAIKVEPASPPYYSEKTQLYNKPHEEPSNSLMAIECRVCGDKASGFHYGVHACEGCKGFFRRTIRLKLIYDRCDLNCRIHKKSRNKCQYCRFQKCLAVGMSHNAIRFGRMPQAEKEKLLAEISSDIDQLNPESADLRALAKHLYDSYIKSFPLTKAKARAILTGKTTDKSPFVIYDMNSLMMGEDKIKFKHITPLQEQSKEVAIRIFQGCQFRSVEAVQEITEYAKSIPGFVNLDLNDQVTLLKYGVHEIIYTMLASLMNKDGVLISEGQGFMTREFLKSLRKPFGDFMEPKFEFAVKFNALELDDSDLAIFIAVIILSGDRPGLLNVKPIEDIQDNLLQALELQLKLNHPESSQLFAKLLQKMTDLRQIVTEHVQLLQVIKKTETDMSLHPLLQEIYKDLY

Molecular target: T1, V5-STAT6 (UniProt P42226)
T1 sequence: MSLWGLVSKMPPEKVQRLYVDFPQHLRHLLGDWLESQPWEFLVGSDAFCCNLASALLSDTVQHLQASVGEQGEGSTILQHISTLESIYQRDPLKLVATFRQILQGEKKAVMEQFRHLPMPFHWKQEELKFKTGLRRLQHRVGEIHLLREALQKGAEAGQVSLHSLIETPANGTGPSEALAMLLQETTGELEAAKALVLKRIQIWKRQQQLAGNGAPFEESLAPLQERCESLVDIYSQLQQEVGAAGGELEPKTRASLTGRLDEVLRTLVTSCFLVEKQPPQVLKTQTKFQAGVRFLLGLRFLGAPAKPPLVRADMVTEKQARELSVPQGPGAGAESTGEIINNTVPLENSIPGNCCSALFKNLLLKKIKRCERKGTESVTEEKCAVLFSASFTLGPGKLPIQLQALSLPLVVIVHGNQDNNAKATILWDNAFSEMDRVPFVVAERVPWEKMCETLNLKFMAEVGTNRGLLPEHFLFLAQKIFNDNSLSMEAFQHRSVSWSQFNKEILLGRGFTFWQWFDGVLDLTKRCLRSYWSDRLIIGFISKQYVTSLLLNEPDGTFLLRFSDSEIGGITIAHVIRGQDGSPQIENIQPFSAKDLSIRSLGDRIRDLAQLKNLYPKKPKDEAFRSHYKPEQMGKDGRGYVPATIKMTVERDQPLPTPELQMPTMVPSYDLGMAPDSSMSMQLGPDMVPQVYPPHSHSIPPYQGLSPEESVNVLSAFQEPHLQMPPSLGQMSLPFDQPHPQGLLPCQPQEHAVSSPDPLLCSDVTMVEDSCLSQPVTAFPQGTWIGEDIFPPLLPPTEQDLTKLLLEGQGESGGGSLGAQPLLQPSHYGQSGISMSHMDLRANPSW
Assay: co-IP; HEK293T cells transfected with V5-STAT6 and Flag-PPARg; whole cell lysates; immunoprecipitation with V5 or Flag M2 antibodies, then immunoblotting; treatments as indicated in the figure

## Flag-PPARγ (from UniProt P37231 1-505)
  binding: binds
